The record followed here is publication PMC7819943, “Rice protein-binding microarrays: a tool to detect cis-acting elements near promoter regions in rice”.

The other results are listed elsewhere or left out.

The assay deals with T1, OsSMF1 (Oryza sativa, UniProt Q6ZLB0 1-436).
T1 sequence: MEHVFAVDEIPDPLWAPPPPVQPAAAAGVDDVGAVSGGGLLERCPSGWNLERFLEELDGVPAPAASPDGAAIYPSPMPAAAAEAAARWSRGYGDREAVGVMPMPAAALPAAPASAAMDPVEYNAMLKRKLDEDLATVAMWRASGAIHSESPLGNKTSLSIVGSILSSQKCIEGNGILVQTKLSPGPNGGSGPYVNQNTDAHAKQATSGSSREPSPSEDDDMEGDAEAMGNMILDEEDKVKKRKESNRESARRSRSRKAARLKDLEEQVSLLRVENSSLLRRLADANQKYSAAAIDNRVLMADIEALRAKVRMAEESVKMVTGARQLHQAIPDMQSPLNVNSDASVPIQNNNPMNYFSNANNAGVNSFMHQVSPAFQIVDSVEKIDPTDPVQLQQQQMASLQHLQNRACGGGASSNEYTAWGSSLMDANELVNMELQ
The experiment in a line: protein-binding microarray (RPBM); PBS, 2% BSA, 51.3 ng/ul salmon testes DNA, 50 uM zinc acetate, 200 nM TF, 25 C, 1 h; high values mean tight binding. As to conditions: protein: recombinant; tags: N-terminal polyhistidine and DsRed monomer fusion (pET32a); chain copies: 2; label: CyDye5-dUTP incorporated in the synthesized complementary strand; 3' TTTTT single-stranded linker to array surface; dsDNA, one strand shown. In outline:
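Ni–NTA purification followed expression in E. coli BL21-CodonPlus of transcription factors fused N-terminally to a polyhistidine tag and DsRed. At 200 nM in PBS with 2% BSA, salmon testes DNA and 50 µM zinc acetate, the protein was incubated for 1 h at 25 °C with a custom Agilent array that had been primer-extended with Cy5-dUTP and blocked with 2% BSA. After washing, the array was read on an Axon 4000B scanner. The binding signal is per-feature fluorescence intensity in arbitrary units.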
Regarding “GGAGAGCAGCACATCACGGCTGTCCACGTGGCCGCGCCGCCGGAGTCACCTAGTGCAG”, the binding signal is 16900 fluorescence intensity (a.u.).

Turning to “CAGGCCAGAACAACTGCTCGGCCCGATAGGAGGGCCTACTCGGAGTCACCTAGTGCAG”, the binding signal is 55800 fluorescence intensity (a.u.).

As to “TATCCGATTATATCATACCAGTATATTACATCATGGCGCCCGGAGTCACCTAGTGCAG”, the binding signal is 4270 fluorescence intensity (a.u.).

On to “TTTCGGGGTTCCAATTTGAGTCACGCACATATTCTTCATCCGGAGTCACCTAGTGCAG”, for which the binding signal is 8490 fluorescence intensity (a.u.).

In the case of “TCAGTAGTTGCTTCTCGCAACGTCACAGGCTTTAGATGCACGGAGTCACCTAGTGCAG”, the binding signal was 44200 fluorescence intensity (a.u.).

Take “TATGTTACCCAGATACGGCTGAAAAGCCACGTATCCGTATCGGAGTCACCTAGTGCAG”: the binding signal is 6340 fluorescence intensity (a.u.).

For the sequence “CGCCGCTGCCCGCATCATCACCACCTCACCTCACCTCAGCCGGAGTCACCTAGTGCAG”, the binding signal is 4440 fluorescence intensity (a.u.).

For “ACGAAGAGTTCGCAGGCTGACACGCAACAGTTGGCAGGCTCGGAGTCACCTAGTGCAG”, the binding signal was 7060 fluorescence intensity (a.u.).

“CTTATCTACTTGATATTTGCATATGTATACAGTTTTACTGCGGAGTCACCTAGTGCAG”: the binding signal was 3220 fluorescence intensity (a.u.).

In the case of “ACAAGGTCATAGATGCCACGATGAATAATTGCATTACTTTCGGAGTCACCTAGTGCAG”, the binding signal is 3250 fluorescence intensity (a.u.).

Turning to “CACACAGCCGCCCTTGCCGACCGCCACCGCCGCAACCGCACGGAGTCACCTAGTGCAG”, the binding signal was 3300 fluorescence intensity (a.u.).

For the sequence “ACAACCACAGGGCTCACCGGCCAGCAACACGTCGACAACCCGGAGTCACCTAGTGCAG”, the binding signal is 7860 fluorescence intensity (a.u.).

For the sequence “GCGCGATGTTGGCGCCCGCGCTCTCGCCGCCGACGTGGACCGGAGTCACCTAGTGCAG”, the binding signal is 9540 fluorescence intensity (a.u.).

On to “ATAAAGTGAGCGATGAGTCATATCATTATCTCCTGCCTGCCGGAGTCACCTAGTGCAG”, for which the binding signal was 13000 fluorescence intensity (a.u.).

In the case of “TTCGAACGAGACTGCAAGAGTGATGACCTGGAAGTCCGCACGGAGTCACCTAGTGCAG”, the binding signal was 5180 fluorescence intensity (a.u.).

For the sequence “GATAGTTGCGGATTTCGTTGATGTCATGTGGAATACTGGACGGAGTCACCTAGTGCAG”, the binding signal is 4620 fluorescence intensity (a.u.).

Consider “CTTCTCGTCGGCTGCCACGCCGGCGCCCTGCACTGCAAGCCGGAGTCACCTAGTGCAG”, for which the binding signal was 4130 fluorescence intensity (a.u.).

As for “GCTACTCCGCGTCGCCACGTCACTGAACGGGTTGCTCCGCCGGAGTCACCTAGTGCAG”, the binding signal was 13500 fluorescence intensity (a.u.).

Regarding “AGGAACCTCAAGGTCTGCCACCACAGCGTGATTTTGATCACGGAGTCACCTAGTGCAG”, the binding signal is 3310 fluorescence intensity (a.u.).

On to “GGGTACGTAGATGGAACTATTAGCGTATGATTAATTAAGTCGGAGTCACCTAGTGCAG”, for which the binding signal is 31000 fluorescence intensity (a.u.).

Take “GCATATTATGTGCTTCCTCGTCAGGCCTCTGTAATGATCACGGAGTCACCTAGTGCAG”: the binding signal was 3870 fluorescence intensity (a.u.).

For the sequence “GAAACGCGTGATGAGTCAACAGATGACTCCGGTTCGGCCTCGGAGTCACCTAGTGCAG”, the binding signal was 11100 fluorescence intensity (a.u.).

On to “TTCAATCTATGCGGGCATCATCTCTCTTCGCGGAATCGGTCGGAGTCACCTAGTGCAG”, for which the binding signal is 3440 fluorescence intensity (a.u.).

On to “CAGCCGCCACGTCGGATAAAACCGGATTCAGAACCACCGACGGAGTCACCTAGTGCAG”, for which the binding signal was 6480 fluorescence intensity (a.u.).

Turning to “TGGAGAGAAATAGGAAAGTGGGGAGAGGTGATGAGTGATTCGGAGTCACCTAGTGCAG”, the binding signal is 3680 fluorescence intensity (a.u.).

Turning to “GCGACACAGCGGCGGCGGCGAGATCGTCTGCGTCTTCTTCCGGAGTCACCTAGTGCAG”, the binding signal is 3240 fluorescence intensity (a.u.).

For “TAAACTTCGGTGGCATGTCATCATCTTCAAACTCATCTTTCGGAGTCACCTAGTGCAG”, the binding signal is 4670 fluorescence intensity (a.u.).

Take “CCAGCGTCCCAGCAGGGCAGTGACTTGGCAAACTATGCGCCGGAGTCACCTAGTGCAG”: the binding signal was 4860 fluorescence intensity (a.u.).

“GGCGCCAGCCCCGGTGCCGGGGAGTGTGGCGGAGCGGGAGCGGAGTCACCTAGTGCAG”: the binding signal is 3910 fluorescence intensity (a.u.).

“GGCTTACTGACATGTGGGGCCACGTGGATCCCACGCTGAGCGGAGTCACCTAGTGCAG”: the binding signal was 16200 fluorescence intensity (a.u.).

With “TTCCCGACCCCACCCCTCGGGCCCACGTGTCGGCGTGAGACGGAGTCACCTAGTGCAG”, the binding signal is 6940 fluorescence intensity (a.u.).

With “GACTTATCAGTTTCAGTTAATCTCATGTGGGCAACCAGAGCGGAGTCACCTAGTGCAG”, the binding signal is 3230 fluorescence intensity (a.u.).

With “CTTGGACCAAGCCGCCACCGTTTATATCCATTTGCCCACCCGGAGTCACCTAGTGCAG”, the binding signal is 3480 fluorescence intensity (a.u.).

“GCGCCGGCGAGGGCGTGGCTCACGTGTGCGGTATGGGCAGCGGAGTCACCTAGTGCAG”: the binding signal was 4060 fluorescence intensity (a.u.).

“GCGATCCAGCTATCCACGTGGCCAGCTTGGCTGCTCTTTCCGGAGTCACCTAGTGCAG”: the binding signal was 20900 fluorescence intensity (a.u.).

Consider “TCCTCGTAGGCTGATTGGTTTGAATACTTGAATGGTCAAGCGGAGTCACCTAGTGCAG”, for which the binding signal is 3290 fluorescence intensity (a.u.).

As to “GAACTACTAAACGGTACGTCTTTTCGTTTAAAAGAATATCCGGAGTCACCTAGTGCAG”, the binding signal was 39400 fluorescence intensity (a.u.).

Regarding “CCTTACCAGATGTTTGCCACGACATGGGCAACGTCATTGCCGGAGTCACCTAGTGCAG”, the binding signal was 6060 fluorescence intensity (a.u.).

On to “CGGCGGCGTCCGAGTGTGTGTGTGTATGTAATGGACGCCGCGGAGTCACCTAGTGCAG”, for which the binding signal is 4110 fluorescence intensity (a.u.).

Take “TTCAACCCATGACAATTGACAACCGGACAGGTGTGGGCGTCGGAGTCACCTAGTGCAG”: the binding signal was 4020 fluorescence intensity (a.u.).

On to “GCATCCGTGCCATTTCATCCCTATTTAATCGTCACATCACCGGAGTCACCTAGTGCAG”, for which the binding signal was 3560 fluorescence intensity (a.u.).

For the sequence “ACCATCTGCCTGAAACTTGTGACGAAAGATCCACTTGCCGCGGAGTCACCTAGTGCAG”, the binding signal is 5790 fluorescence intensity (a.u.).

For “GAGGAGGGGAGCCGGCGGTGGCAACGGCCGATGGATAGGCCGGAGTCACCTAGTGCAG”, the binding signal was 3380 fluorescence intensity (a.u.).

“GCGGCGGCCTCCTTCTCCACCACCTTCGTGTTCGCCATCGCGGAGTCACCTAGTGCAG”: the binding signal was 3240 fluorescence intensity (a.u.).

For the sequence “ACGGCCGTCGCCCGAGAGCGAACGGCCGTCTGCCACGTCACGGAGTCACCTAGTGCAG”, the binding signal is 18400 fluorescence intensity (a.u.).

Turning to “TCTGTAATCGTGGTGTTCATGTGTGTGAAATTGATGTTTTCGGAGTCACCTAGTGCAG”, the binding signal was 3840 fluorescence intensity (a.u.).

Regarding “GCCGAAAATATCTGGGCTGTAGCTTTTGATGGGCTAATGTCGGAGTCACCTAGTGCAG”, the binding signal was 19400 fluorescence intensity (a.u.).

Turning to “CATCGGTCATGGTGGCGTTGGTCATGTTGGCATGGCCGTCCGGAGTCACCTAGTGCAG”, the binding signal is 44000 fluorescence intensity (a.u.).

With “CAAATAGCTTGCCACACCACGCTCATACACAAATTATGCACGGAGTCACCTAGTGCAG”, the binding signal was 3410 fluorescence intensity (a.u.).

Turning to “GCATGCAGGGCATGGCGAGACGGTGACGTGCTCCAAGGCGCGGAGTCACCTAGTGCAG”, the binding signal was 4760 fluorescence intensity (a.u.).

As for “TCGAGTTGGCCGGCGGCGAGGCTTGGGGACGGCGGGGTGGCGGAGTCACCTAGTGCAG”, the binding signal was 4730 fluorescence intensity (a.u.).

With “TGGATCCAGTTGCATGTATTATGTAAGAAATAAAATGTTGCGGAGTCACCTAGTGCAG”, the binding signal is 3920 fluorescence intensity (a.u.).

Take “AAAGCAACAGCAGCCCAGCACACCACAGCACAGCGCCGCTCGGAGTCACCTAGTGCAG”: the binding signal is 3180 fluorescence intensity (a.u.).

For the sequence “GGAGAGGAGGGGAGAGGGTATGACGTGGCCAGCTGACATGCGGAGTCACCTAGTGCAG”, the binding signal was 15700 fluorescence intensity (a.u.).
